Binding screen against folded nucleic acids

Calls as published in the ROBIN set (doi:10.1002/anie.202211358).

Targets (5′ to 3′):
T1: TPP riboswitch RNA three-way junction, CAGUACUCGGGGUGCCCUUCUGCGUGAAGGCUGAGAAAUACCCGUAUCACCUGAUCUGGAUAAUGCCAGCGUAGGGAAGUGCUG. About 160 hits among about 24,000 compounds.
T2: SAM-II riboswitch RNA pseudoknot, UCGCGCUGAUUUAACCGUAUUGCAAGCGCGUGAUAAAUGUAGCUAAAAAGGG. About 200 hits among about 21,000 compounds.
T3: PreQ1 riboswitch RNA pseudoknot, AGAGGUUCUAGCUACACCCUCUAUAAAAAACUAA. From B. subtilis. About 170 hits among about 24,000 compounds.

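Each compound is printed as two spots on a slide made to bind it covalently, so it has no test concentration; the read-out is fluorescence of the bound, labelled oligonucleotide. For the PreQ1, TPP and SAM-II riboswitches the laboratory earlier reported (doi:10.1038/s41467-019-09493-3) 1 µM RNA, 2 h, and a rule that included a mean Z-score above 3 (spot signal-to-noise against the whole library), a score well above that on a control array, and duplicate spots agreeing (coefficient of variation under 100). The data file gives only the calls; its cut-offs may differ, and compounds hitting several targets are kept. A missing hit is not proof of no binding, and a hit is not a measured affinity.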
A compound is marked active if it was called a hit and inactive if it was screened but was not.
Compounds were drawn at random from those tested, without regard to their results.
A target missing from an entry has no call listed here.
A dash means that no call is listed here.

| compound | T1 | T2 | T3 |
|---|---|---|---|
| `COc1ccc(CNC(=O)CCN2C[C@H](C(C)C)[C@@H](N)C2)cc1` | inactive | inactive | inactive |
| `CS(=O)(=O)c1ccc(NCC(=O)NC2CCS(=O)(=O)C2)c([N+](=O)[O-])c1` (stereo not given) | inactive | inactive | inactive |
| `O=C(c1ccc(C(=O)N2CCC(N3CCCC3)CC2)c(Nc2ccccc2)c1)N1CCC(N2CCCC2)CC1` | inactive | inactive | inactive |
| `Cc1ccc(NC(=O)c2sc3nc(C)c(Cl)c(C)c3c2N)cc1C` | inactive | inactive | inactive |
| `O=S(=O)([O-])CCSSCCS(=O)(=O)[O-].[Na+].[Na+]` | inactive | inactive | inactive |
| `CCCn1cc(-c2cc(-c3cc(CC)n[nH]3)c(C#N)c(N)n2)c(C)n1` | inactive | inactive | inactive |
| `COC(=O)C1=C(N)Oc2cc(C)oc(=O)c2C1c1cccnc1` (stereo not given) | inactive | inactive | inactive |
| `COc1cccc(Nc2c(-c3cccc(O)c3)nc3cnccn23)c1` | inactive | - | inactive |
| `CN(C(=O)c1ccc(N2CCCCS2(=O)=O)cc1)C1CCCCC1O` (stereo not given) | inactive | inactive | inactive |
| `COc1ccccc1CN1CCC(CNC(=O)CCc2c(C)nc3nc(CN)nn3c2C)CC1` | inactive | - | inactive |
| `c1coc(-c2nc3sc4c(NCC5CCCO5)ncnc4c3c3c2CCCC3)c1` (stereo not given) | inactive | inactive | inactive |
| `CC1(C)CC(OC(=O)c2ccc(N)cc2)CC(C)(C)N1` | inactive | inactive | inactive |
| `CCSc1ccc(C(=O)N2CCOCC(CO)C2)s1` (stereo not given) | inactive | inactive | inactive |
| `CC1(C)CC(O)CC(C)(C)N1CCO` | inactive | inactive | inactive |
| `CC(C)c1noc(CN2CCC3(CC2)Nc2ccccc2NC3=O)n1` | inactive | inactive | inactive |
| `COc1ccc(NC(=O)c2c(Nc3ccccc3)n[nH]c2N)cc1` | inactive | inactive | inactive |
| `Cc1cc(N(C)Cc2ccc3nsnc3c2)nc(N)n1` | inactive | inactive | inactive |
| `Br.CN(C)c1n/c(=N/c2cccc(Cl)c2)ss1` | inactive | inactive | inactive |
| `COc1cc(C)c(CNCCc2ccccc2)cc1C` | inactive | inactive | inactive |
| `CCCSc1ncc(-c2cc(-c3ccn(C)c3)nc(N)c2C#N)cn1` | inactive | inactive | inactive |
| `OCCn1nc(-c2ccncc2)nc1-c1cccn1C1CC1` | inactive | inactive | inactive |
| `OCC#Cc1ccc(-c2cn(Cc3ccc4c(c3)CCCO4)nn2)s1` | inactive | inactive | inactive |
| `CCOC(=O)c1cnn(-c2nc(C)cc(C)n2)c1N` | inactive | inactive | inactive |
| `COC(=O)c1sc2nc(N3CCOCC3)c3c(c2c1N)CCCC3` | inactive | inactive | inactive |
| `Nc1nc2n(c1C(=O)c1ccc(F)cc1)CCCCC2` | inactive | inactive | inactive |
| `Cc1ccc(C)c(Nc2nc(C)nc3c2CCC3)c1` | inactive | - | inactive |
| `Cc1nc(N)sc1C(=O)N1CCCC(c2nccn2Cc2cscn2)C1` (stereo not given) | inactive | inactive | inactive |
| `CC[C@H](NC(=O)[C@H](C)NC)C(=O)N1C[C@@H](O)C[C@H]1Cc1c(-c2[nH]c3cc(F)ccc3c2C[C@H]2C[C@H](O)CN2C(=O)[C@H](CC)NC(=O)[C@H](C)NC)[nH]c2cc(F)ccc12` | inactive | inactive | inactive |
| `O=C(c1scc2c1CCCC2)N1CC[C@H]2CC[C@@H](C1)N2` | inactive | inactive | inactive |
| `CC(C)(S)[C@@H](N)C(=O)O` | inactive | inactive | inactive |
| `CCOC(=O)c1ccc2ncc(C(=O)OCC)c(Nc3ccc(F)cc3)c2c1` | inactive | inactive | inactive |
| `Cc1cc(C[C@@H]2COC[C@@H]2NC(=O)Cn2nc(C)cc2N)on1` | inactive | inactive | inactive |
| `CCC(N)c1cc(Cl)ccc1Cl` (stereo not given) | inactive | inactive | inactive |
| `OC(COc1ccc2ccccc2c1Cl)CN1CCOCC1` (stereo not given) | inactive | inactive | inactive |
| `CCOC(=O)C1CCN(c2c(Nc3cccc(SC)c3)c(=O)c2=O)CC1` | inactive | inactive | inactive |
| `O=C(O)c1c(CNCCc2ccco2)c2ccccc2n1Cc1ccc(Cl)cc1` | inactive | - | inactive |
| `CC(C)CCC1(C2CCNCC2)NC(=O)N(Cc2ccoc2)C1=O` (stereo not given) | inactive | inactive | inactive |
| `Nc1c(S(=O)c2ccccc2)sc2nc3c(cc12)CCCC3` (stereo not given) | inactive | inactive | inactive |
| `Nc1c(Cl)c(Br)cc2c1C(=O)c1ccccc1C2=O` | inactive | inactive | inactive |
| `CCCn1cnnc1CNCc1nc(-c2ccco2)no1` | inactive | inactive | inactive |
| `CC(C)NCC(O)COc1ccccc1` (stereo not given) | inactive | inactive | inactive |
| `CC(C)C1C(C#N)=C(N)Oc2nc(SCc3ccccc3)[nH]c(=O)c21` (stereo not given) | inactive | inactive | inactive |
| `CC1CCN(c2nc(Cl)nc(Nc3ccc4c(c3)OCO4)n2)CC1` | inactive | inactive | inactive |

The first 5 entries again:

{"compound": "COc1ccc(CNC(=O)CCN2C[C@H](C(C)C)[C@@H](N)C2)cc1", "T1": "inactive", "T2": "inactive", "T3": "inactive"}
{"compound": "CS(=O)(=O)c1ccc(NCC(=O)NC2CCS(=O)(=O)C2)c([N+](=O)[O-])c1", "stereo": "stereo not given", "T1": "inactive", "T2": "inactive", "T3": "inactive"}
{"compound": "O=C(c1ccc(C(=O)N2CCC(N3CCCC3)CC2)c(Nc2ccccc2)c1)N1CCC(N2CCCC2)CC1", "T1": "inactive", "T2": "inactive", "T3": "inactive"}
{"compound": "Cc1ccc(NC(=O)c2sc3nc(C)c(Cl)c(C)c3c2N)cc1C", "T1": "inactive", "T2": "inactive", "T3": "inactive"}
{"compound": "O=S(=O)([O-])CCSSCCS(=O)(=O)[O-].[Na+].[Na+]", "T1": "inactive", "T2": "inactive", "T3": "inactive"}